Results published in patent US20190367609A1 (INNATE PHARMA, published 2019).
No constants are given. Whether binding was seen depends on the method and setting. Some binding calls cover weakened binding; strength is not graded here.

The chains behind the UniProt entries cited, without tags or fusion partners. Where a name states a change or a piece, a line headed by the entry shows the natural chain unless it says otherwise.
UniProt O76036: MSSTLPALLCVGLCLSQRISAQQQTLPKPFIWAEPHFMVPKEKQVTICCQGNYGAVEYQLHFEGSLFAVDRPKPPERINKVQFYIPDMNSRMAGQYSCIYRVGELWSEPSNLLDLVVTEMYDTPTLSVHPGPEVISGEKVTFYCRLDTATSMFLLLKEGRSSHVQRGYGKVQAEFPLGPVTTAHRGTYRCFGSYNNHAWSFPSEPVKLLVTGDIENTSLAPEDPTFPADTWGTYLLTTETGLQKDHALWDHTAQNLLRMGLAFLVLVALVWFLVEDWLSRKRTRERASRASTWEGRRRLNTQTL
UniProt P24161: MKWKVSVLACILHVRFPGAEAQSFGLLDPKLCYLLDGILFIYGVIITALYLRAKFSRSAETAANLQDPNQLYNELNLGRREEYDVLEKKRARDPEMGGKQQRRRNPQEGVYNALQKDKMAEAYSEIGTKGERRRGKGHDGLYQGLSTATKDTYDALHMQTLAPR

What was measured:
[1] = target: chimeric protein of the extracellular portion of human NKp46 fused to the intra-cytoplasmic domain of mouse CD3, on DO.11.10 reporter cells (human; mouse) (UniProt O76036+P24161); assay: flow cytometry primary screen, hybridoma supernatant on DO.11.10 reporter cells, goat anti-mouse pAb-PE
[2] = target: Human 6xHis tagged NKp46 recombinant protein (human) (UniProt O76036); assay: HX-MS, NKp46-His and antibody mixed at 20 µM each

Binder	binding [1]	binding [2]
8B6A (antibody, V domains shown, Mouse variable domains; light chain is kappa (VK); also called CHG1-M-H46 8B6-A) VH: QVQLQQPGSELVRPGASVKLSCKASGYTFTSYWMHWVKQRPGQGLEWIGTIYPGSDITNYDEKFKNKATLTVDTSSSTAYMQLSSLTSEDSAVYYCTRDGRFANWGQGTLVTVSA VL: EIVLTQSPAITAASLGQKVTITCSASSSVSYMHWYQQKSGTSPKPWIYEISKLASGVPARFSGSGSGTSYSLTISSMEAEDAAIYYCQQWNLPLTFGAGTKLELK	binds	binds
8B6B (antibody, V domains shown, Same heavy chain variable domain as 8B6A with a different light chain; also called CHG1-M-H46 8B6-B) VH: QVQLQQPGSELVRPGASVKLSCKASGYTFTSYWMHWVKQRPGQGLEWIGTIYPGSDITNYDEKFKNKATLTVDTSSSTAYMQLSSLTSEDSAVYYCTRDGRFANWGQGTLVTVSA VL: EIQMTQSPSSLSASLGERVSLTCRASQDIGSSLNWLQQEPDGTIKRLIYATSSLDSGVPKRFSGSRSGSDYSLTISSLESEDFVDYYCLQYASSPYTFGGGTKLEIK	binds	
9H11A (antibody, V domains shown, also called CHG1-M-H46 9H11-A) VH: QVQLQQPGAELVKPGASVKLSCKASGYTFTSYWMHWVKLRPGQGFEWIGEIIPSNGVTNYNEKFKRKATLTVDKSSSTAYMQLSSLTSEDSAVYYCTIRLRYALDYWGQGTSVTVSA VL: DIQMTQTTSSLSASLGDRVTISCRASQDISNFLNWYQQKPDGTVKLLIYYTSRLHSGVPSRFSGSGSGTDYSLTISNLEQEDIATYFCQQGNTLPPTFGGGTKLEIK	binds	binds
9H11B (antibody, V domains shown, Same heavy chain variable domain as 9H11A with a different light chain; also called CHG1-M-H46 9H11-B) VH: QVQLQQPGAELVKPGASVKLSCKASGYTFTSYWMHWVKLRPGQGFEWIGEIIPSNGVTNYNEKFKRKATLTVDKSSSTAYMQLSSLTSEDSAVYYCTIRLRYALDYWGQGTSVTVSA VL: DIVMTQSQKFMSTSVGDRVSVTCKASQNVGTNVAWYQQKPGQSPKALIYSTSFRYSGVPDRFTGSGSGTDFTLTISNVQSEDLAEYFCQQYNSYPFTFGSGTKLEIK	binds	
17E1 (antibody, V domains shown, also called CHG1-M-H46 17E1) VH: QVQLQQPGSVLVRPGASVKLSCKASGYTFTSSWMHWAKQRPGQGLEWIGHIHPNSGISNYNEKFKGKATLTVDTSSSTAYVDLSSLTSEDSAVYYCSRGGRFDDWGAGTTVTVSS VL: DIQMTQSPSSLSASLGERVSLTCRASQDIGSSLNWLQQEPDGTIKRLIYATSRLDSGVPKRFSGSRSGSDYSLTISSLESEDFVDYYCLQYASSPWTFGGGTKLEIK	binds	binds
